Laboratory results as given in publication PMC5467238.

Protein sequences, listed by entry. Tags and fused reporters are not part of them.
UniProt P68104: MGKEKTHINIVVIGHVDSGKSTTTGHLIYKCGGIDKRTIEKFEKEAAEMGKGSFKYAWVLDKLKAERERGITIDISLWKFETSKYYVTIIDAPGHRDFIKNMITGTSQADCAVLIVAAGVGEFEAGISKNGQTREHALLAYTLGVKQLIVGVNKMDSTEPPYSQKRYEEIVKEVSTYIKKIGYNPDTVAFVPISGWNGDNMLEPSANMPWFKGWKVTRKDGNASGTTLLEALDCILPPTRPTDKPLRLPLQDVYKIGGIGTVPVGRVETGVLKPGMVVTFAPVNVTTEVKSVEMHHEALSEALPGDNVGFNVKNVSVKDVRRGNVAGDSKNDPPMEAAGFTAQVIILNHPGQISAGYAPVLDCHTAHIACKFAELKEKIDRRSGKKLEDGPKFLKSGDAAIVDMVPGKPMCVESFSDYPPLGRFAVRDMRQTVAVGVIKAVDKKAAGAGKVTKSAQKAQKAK

Target: T1, FLAG-CTIF-WT (UniProt O43310)
T1 sequence: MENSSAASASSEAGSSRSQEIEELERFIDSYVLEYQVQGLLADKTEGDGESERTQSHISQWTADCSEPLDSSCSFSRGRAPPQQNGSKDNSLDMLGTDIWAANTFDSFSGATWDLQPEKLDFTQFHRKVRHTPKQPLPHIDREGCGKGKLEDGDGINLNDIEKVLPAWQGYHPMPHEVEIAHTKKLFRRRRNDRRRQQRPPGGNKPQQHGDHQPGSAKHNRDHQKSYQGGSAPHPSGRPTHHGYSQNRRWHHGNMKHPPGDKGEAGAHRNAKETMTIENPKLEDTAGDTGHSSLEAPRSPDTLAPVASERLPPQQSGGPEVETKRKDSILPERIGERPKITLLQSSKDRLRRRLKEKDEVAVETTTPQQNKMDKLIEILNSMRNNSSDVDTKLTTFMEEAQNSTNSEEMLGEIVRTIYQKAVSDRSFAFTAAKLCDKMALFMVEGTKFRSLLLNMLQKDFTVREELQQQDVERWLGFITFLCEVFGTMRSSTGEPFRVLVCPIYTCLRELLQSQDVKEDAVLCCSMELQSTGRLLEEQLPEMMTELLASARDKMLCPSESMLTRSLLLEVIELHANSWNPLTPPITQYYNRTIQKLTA
Assay: affinity purification with mass spectrometry; immunoprecipitate of FLAG-CTIF-WT from HEK293T cells, SDS-PAGE, silver staining, bands excised, LC-MS/MS

Q: How did the binding turn out when “eukaryotic translation elongation factor 1 alpha 1 (eEF1A1), endogenous (from UniProt P68104 1-462)” was run?
A: binds

Results are given in words; binding and its absence hold for the method and conditions named. In cells and extracts the contact can be indirect. These calls come from enrichment with a bait or labelling near it, and not all partners need be listed. Sequences can lack the tags named with a protein.
